Data taken from PubChem BioAssay AID720504 (National Center for Advancing Translational Sciences (NCATS), 2013).
Values joined by “and” are separate entries in the source; they are usually repeats but may differ in a detail not shown here. Equal entries are not always repeated. Screen size: about 360,000 compounds; about 10,000 (2.8%) were called active. Inconclusive means that the source gave no clear call. Such entries were picked first, then a sample of the others. Calls come from the whole dose curve; as a rule, active = well fitted inhibition curve with a large enough effect; inconclusive = small, poorly fitted or top-dose-only effect; inactive = flat fitted curve, though single readings scatter. Potencies beside an inconclusive call are fits to weak or partial responses and may not hold up.

Amino acid sequences for entries named in this document (tags omitted).
UniProt P53350, whole entry, looked up: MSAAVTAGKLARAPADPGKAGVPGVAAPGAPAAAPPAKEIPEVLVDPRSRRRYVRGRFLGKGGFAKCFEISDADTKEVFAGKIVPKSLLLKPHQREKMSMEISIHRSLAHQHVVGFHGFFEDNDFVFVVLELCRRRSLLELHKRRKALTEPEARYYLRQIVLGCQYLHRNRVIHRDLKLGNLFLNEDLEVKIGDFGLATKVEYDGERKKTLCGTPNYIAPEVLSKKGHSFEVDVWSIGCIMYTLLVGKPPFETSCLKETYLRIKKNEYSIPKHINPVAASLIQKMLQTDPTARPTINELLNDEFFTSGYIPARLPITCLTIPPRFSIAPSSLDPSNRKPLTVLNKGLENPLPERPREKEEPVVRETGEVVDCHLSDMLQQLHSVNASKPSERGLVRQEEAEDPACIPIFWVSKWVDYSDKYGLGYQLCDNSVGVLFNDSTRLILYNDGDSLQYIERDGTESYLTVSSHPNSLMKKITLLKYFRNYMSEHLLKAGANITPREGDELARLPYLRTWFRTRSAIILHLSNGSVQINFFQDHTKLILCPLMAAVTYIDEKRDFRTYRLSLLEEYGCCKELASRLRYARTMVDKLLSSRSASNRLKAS

target: Serine/threonine-protein kinase PLK1 (Homo sapiens) (UniProt P53350); assay: qHTS for Inhibitors of PLK1-PDB (polo-like kinase 1 - polo-box domain): Primary Screen; details: Plk1 PBD binding of FITC phosphopeptide, fluorescence polarization; note: nearly all actives have a fitted effect of over 65% in size; for max response, negative = inhibition: series mostly up to about 57 µM
% is set by controls: 0 for no effect and ±100 for the full control effect; potency is the fitted concentration of half-maximal effect.

Row | Compound | max response, negative = inhibition | Potency
1 | O=C(Nc1cccc(NC(=O)c2cccc(F)c2)n1)c1cccc(F)c1 | inactive: 4.3% | 
2 | Cc1ccc(/C=C2\C(=N)N3N=C(CC(=O)N4CCOCC4)SC3=NC2=O)o1 |  | active: 26.7 µM
3 | COc1ccc(OC)c(Nc2nc(-c3sc(N)nc3C)cs2)c1 |  | inconclusive: 29.9 µM [inhibitor, single point]
4 | Cc1cc(C)c2c(=O)n(CC(=O)Nc3cccc(F)c3)sc2n1 |  | active: 1.89 µM
5 | COc1cccc(/C=N/NC(=O)Cn2cnc3c2c(=O)n(C)c(=O)n3C)c1OC |  | inconclusive: 37.7 µM [inhibitor, single point]
6 | O=C1NC2(CCCCCC2)C(=O)N1Cc1cccc([N+](=O)[O-])c1 |  | active: 26.7 µM
7 | CCN=C1SC(C(=O)Nc2cccc(OCC)c2)CC(=O)N1CC (stereo not drawn) |  | inconclusive: 37.7 µM [inhibitor, single point]
8 | Cc1ccc(N2CC(O)=C(c3nc4ccccc4c(=O)[nH]3)C2=N)cc1C | inconclusive: -34.9% [inhibitor] | 
9 | CCc1ccccc1NC(=O)CCCSc1nc2ccccc2s1 | inactive: -6.85% | 
10 | CCc1oc2ccccc2c1C(=O)CCN1CCCCC1 |  | active: 11.9 µM
11 | CC(NC(=O)COC(=O)CCC(=O)c1ccc(F)cc1)c1ccccc1 (stereo not drawn) | inactive: -12.4% | 
12 | CCOC(=O)/C=C/S(=O)(=O)c1ccc(NC(C)=O)cc1 |  | inconclusive: 10.6 µM [inhibitor, partial curve]
13 | Cc1ccc(CNC(=O)CCc2ccc(S(=O)(=O)NC3CCCCC3)cc2)cc1 |  | active: 29.9 µM
14 | c1ccc(-c2c(-c3ccccc3)n(Cc3ccco3)c3ncnc(NCCCn4ccnc4)c23)cc1 |  | inconclusive: 11.9 µM [inhibitor, partial curve]
15 | COc1ccc(NCC(=O)N/N=C/C=C/c2ccccc2[N+](=O)[O-])cc1 | inactive: 1.49% | 
16 | Cc1nc(C)c(C(=O)NNC(=O)c2ccc(Br)cc2)s1 | inactive: -2.27% | 
17 | C=CCc1ccc(OCCCN2CCCC(C)C2)c(OC)c1 (stereo not drawn) | inactive: -2.7% | 
18 | Cc1cccc(Nc2cc(C)nc3ccccc23)c1 | inactive: 4.84% | 
19 | Cc1ccc(N2C(=O)C3CCCN3C2=S)cc1C (stereo not drawn) |  | inconclusive: 21.2 µM [inhibitor, partial curve]
20 | C[C@@H]1CN([C@@H](C)CO)C(=O)c2cc(NC(=O)C3CCCCC3)ccc2O[C@@H](C)CCCCO[C@@H]1CN(C)Cc1ccncc1 | inactive: -9.03% | 
21 | Cc1cccc(NC(=O)NC2(C(=O)NCc3ccco3)CCCCC2)c1 | inactive: -4.43% | 
22 | Cc1cccc(NC(=O)Nc2cccc(C#N)c2)n1 |  | inconclusive: 26.7 µM [inhibitor, single point]
23 | CCOc1ccc(OCCn2c(=S)[nH]c3ccccc32)cc1 |  | active: 13.4 µM
24 | O=C(O)c1cccc(NC(=S)N/N=C/c2ccccc2OCc2cccc(Br)c2)c1 |  | inconclusive: 26.7 µM [inhibitor, single point]
25 | CCc1ccc(NC(=O)CCNC(=O)Cn2cnc3ccccc3c2=O)cc1 |  | active: 29.9 µM
26 | O=C(CSC(=S)N1CCOCC1)Nc1nccs1 | inactive: -1.04% | 

In the list so far, these contain fluorine.
Row | Compound | max response, negative = inhibition | Potency
1 | O=C(Nc1cccc(NC(=O)c2cccc(F)c2)n1)c1cccc(F)c1 | inactive: 4.3% | 
4 | Cc1cc(C)c2c(=O)n(CC(=O)Nc3cccc(F)c3)sc2n1 |  | active: 1.89 µM
11 | CC(NC(=O)COC(=O)CCC(=O)c1ccc(F)cc1)c1ccccc1 (stereo not drawn) | inactive: -12.4% | 

Going on with the list:

Row | Compound | max response, negative = inhibition | Potency
27 | CCOc1cccc(C(=O)Nc2cccc(NC(=O)c3ccco3)c2)c1 |  | inconclusive: 23.8 µM [inhibitor, partial curve]
28 | CCc1ccc(C2C(C#N)=C(N)SC(N)=C2C#N)s1 | inconclusive: -32.2% [inhibitor] | 
29 | O=[N+]([O-])c1ccccc1/C=C/C=N/n1c(-c2ccccc2)n[nH]c1=S |  | inconclusive: 26.7 µM [inhibitor, partial curve]
30 | c1ccc(-c2cnc(-c3cccnc3)o2)cc1 |  | inconclusive: 29.9 µM [inhibitor, single point]
31 | O=C(CSc1nnc(CNc2ccc(F)cc2)o1)N1CCCc2ccccc21 |  | active: 26.7 µM
32 | Nc1nc(N)c(N=Nc2ccc(S(N)(=O)=O)cc2)c(=O)[nH]1 | inactive: -0.685% | 
33 | COc1ccc(-c2ccc(N(C)C)cc2)cc1[C@H]1[C@@H]2C=CCC[C@@]2(C)C(=O)N1Cc1ccccc1 | inactive: -3.02% | 
34 | Oc1ccc(-c2csc(Nc3cccc4ccccc34)n2)cc1O |  | active: 18.9 µM
35 | CCO/C=C1\SC(=S)N(c2ccc(Cl)cc2)C1=O |  | inconclusive: 10.6 µM [inhibitor, partial curve]
36 | O=C(CSc1ccc(-c2nc3ccccc3[nH]2)cn1)N1CCN(C(=O)c2ccco2)CC1 |  | active: 29.9 µM
37 | COc1cc(/C=C2\SC(=O)N(c3cccc(Cl)c3)C2=O)cc([N+](=O)[O-])c1O |  | inconclusive: 16.8 µM [inhibitor, partial curve]
38 | C=CCNc1nc(-c2sc(NC(=O)CC)nc2C)cs1 | inconclusive: -31.7% [inhibitor] | 
39 | O=C1c2ccccc2C(=O)N1CCCc1nc(-c2ccccn2)no1 |  | active: 29.9 µM
40 | CCOC(=O)c1cnc2c(C)c(Cl)ccc2c1NCCCN1CCOCC1 | inactive: -7.58% | 
41 | Cc1cc(NC(=O)c2ccc(C#N)cc2)n(-c2ccccn2)n1 | inactive: -7.14% | 
42 | O=C1CC(=O)Nc2cc(S(=O)(=O)Nc3ccc(F)cc3Cl)ccc2N1 | inactive: -13.8% | 
43 | N#Cc1cnn2c3c(cnc12)C(=O)N1CCc2ccccc2C1C3 (stereo not drawn) |  | inconclusive: 21.2 µM [inhibitor, single point]
44 | Nc1ccc2nc(-c3ccccc3)c(-c3ccccc3)nc2c1 |  | inconclusive: 29.9 µM [inhibitor, partial curve]
45 | O=C1C(Cl)=C(N2CCCCC2)C(=O)C(Cl)=C1c1cnc(N2CCCCC2)s1 |  | active: 7.52 µM
46 | CN1CCN(Cc2nc3ccccc3c(=O)n2Cc2nc(-c3ccc4ccccc4c3)cs2)CC1 |  | inconclusive: 23.8 µM [inhibitor, single point] and inconclusive: 37.7 µM [inhibitor, single point]
47 | CCc1ccc(OCC(=O)N2CCN(c3ccccn3)CC2)c(Br)c1 | inactive: -9.76% | 
48 | CCNc1cc2c(cc1O)CCC1C2CCC2(C)C(O)CCC12 (stereo not drawn) |  | inconclusive: 29.9 µM [inhibitor, single point]
49 | C/C(=N\Nc1nc(-c2cc(C)ccc2C)cs1)c1cc2c(ccc3ccccc32)oc1=O |  | inconclusive: 37.7 µM [inhibitor, partial curve]
50 | COC(Cc1nnc(SC)n1-c1ccc(Cl)cc1)OC | inactive: -5.31% | 
51 | S=c1[nH]ccc2ccccc12 |  | inconclusive: 26.7 µM [inhibitor, single point]
52 | C/C(=N\NC(=O)CSCc1ccccc1Cl)c1cc(O)ccc1O | inactive: -1.91% | 

3 structures out of the list, arranged by count of non-hydrogen atoms, high to low:
Row | Compound | max response, negative = inhibition | Potency
20 | C[C@@H]1CN([C@@H](C)CO)C(=O)c2cc(NC(=O)C3CCCCC3)ccc2O[C@@H](C)CCCCO[C@@H]1CN(C)Cc1ccncc1 | inactive: -9.03% | 
21 | Cc1cccc(NC(=O)NC2(C(=O)NCc3ccco3)CCCCC2)c1 | inactive: -4.43% | 
17 | C=CCc1ccc(OCCCN2CCCC(C)C2)c(OC)c1 (stereo not drawn) | inactive: -2.7% | 

Going on with the list.

Row | Compound | max response, negative = inhibition | Potency
53 | CCOc1ccc(NC(=O)c2sc(NC(C)=O)c(C(=O)OC)c2C)cc1 | inactive: 0.246% | 
54 | COc1cc(/C=N/N2C(=O)CSC2=S)cc(Br)c1O |  | inconclusive: 29.9 µM [inhibitor, single point]
55 | Cc1cccc(CNC(=O)c2sc(=O)n(Cc3ccccc3C)c2C)c1 | inactive: -6.16% | 
56 | CCCCNCCOCCOc1ccc(C)cc1[N+](=O)[O-] | inactive: 0.207% | 
57 | CC1(C)C2CCC1(C)C(OC(=O)C[n+]1ccccc1)C2 (stereo not drawn) |  | active: 18.9 µM
58 | NC(=S)NN=CCn1cc([N+](=O)[O-])c(=O)[nH]c1=O |  | inconclusive: 18.9 µM [inhibitor, partial curve]
59 | C[C@H](NC(=O)Cc1ccccc1)C(=O)N1CCC2(CC1)NCCc1[nH]cnc12 |  | active: 26.7 µM
60 | Cn1cccc1C(=O)NC(=O)COC(=O)c1ccc(S(C)(=O)=O)c([N+](=O)[O-])c1 |  | inconclusive: 26.7 µM [inhibitor, partial curve]
61 | Cc1cc(SCC(=O)Nc2ncc(Cl)cc2Cl)nc2ccccc12 |  | inconclusive: 26.7 µM [inhibitor, partial curve]
62 | C/C(=N\N=C1\NC(=O)CC(C(=O)O)S1)c1ccc(F)cc1 (stereo not drawn) | inactive: -4.8% | 
63 | O=C(O)CCC(=O)NCc1c(Cl)cccc1Sc1ccc(Cl)cc1 | inconclusive: 2.54% [inhibitor] | 
64 | O=C(Sc1ccc(Cl)cc1)c1ccccn1 |  | inconclusive: 7.52 µM [inhibitor, partial curve]
65 | CC(C)c1ccc(NC(=O)[C@H](NC(=O)[C@@H]2Cc3ccccc3CN2)c2ccccc2)cc1 | inactive: -5.7% | 
66 | COC(=O)c1ccc(-n2nnnc2SC)cc1 |  | active: 21.2 µM
67 | CCOC(=O)C1(Cc2cccc(Cl)c2)CCCN(C(=O)c2ccco2)C1 (stereo not drawn) |  | active: 13.4 µM
68 | COCCN(C(=O)COC(=O)CCOc1cccc(C)c1)c1c(N)n(Cc2ccccc2)c(=O)[nH]c1=O | inactive: -1.13% | 
69 | c1ccc(CNc2nc(NCc3ccco3)nc(N3CCOCC3)n2)cc1 |  | active: 29.9 µM
70 | CC(C)C1Cc2c(sc(NC(=S)NC(=O)c3ccccc3)c2C#N)CO1 (stereo not drawn) |  | active: 23.8 µM
71 | CSc1ccc(C(=S)N2CCN(Cc3ccccc3)CC2)cc1 |  | active: 21.2 µM
72 | COc1ccc(OCCCC(=O)OCC(=O)N2CCN(S(=O)(=O)c3ccc(C)cc3C)CC2)cc1 | inactive: -4.77% | 
73 | CN(C)/C=C1/Nc2ccccc2C1=O |  | active: 26.7 µM
74 | Cc1c(CN(C)Cc2cn(C)nc2-c2ccccc2F)[nH]c2ccccc12 |  | inconclusive: 37.7 µM [inhibitor, single point]
75 | Cc1ccc(-c2ccc(C(=O)NCc3ccc(Cl)cc3)o2)c2ccccc12 | inconclusive: -34.4% [inhibitor] | 
76 | O=C(NCC1CC1)c1ccc(Nc2nc3ccc(Br)cc3[nH]2)cc1 |  | active: 10.6 µM
77 | O=S(=O)(c1cccs1)N1CCN(CC(O)COc2cccc(Br)c2)CC1 (stereo not drawn) | inactive: -2.07% | 
78 | COc1ccc(NCC(=O)N/N=C/c2cc([N+](=O)[O-])ccc2N2CCCC2)cc1 |  | active: 13.4 µM
